Patent US20250369050A1, “METHODS AND COMPOSITIONS RELATED TO ASSESSMENT AND TREATMENT OF KIDNEY DISEASE” (Board of Regents, The University of Texas System, priority 2022, published 2025)
At least one structure is not confirmed: it was looked up by name or label, or the drawing left a doubt.

What was measured:
[1] = test system: Kidney tubules (MCT) cells; assay: Adenine-induced fibronectin accumulation in MCT cells (FIG. 19); format: cell-based, mouse; conditions: 10 nM rapamycin pre-incubation 30 min, then 20 μM adenine 15 min
Description: FIG. 19. Effect of Rapamycin and NaHS on Adenine. […] A. Kidney tubules (MCT) cells were pre-incubated with 10 nM of rapamycin for 30 min followed by incubation with 20 μM of adenine for 15 min. B. MCT cells were incubated with 20 μM of adenine and 250 μM NaHS for 15 min.

[2] = test system: mTOR pathway; assay: Adenine-induced stimulation of mTOR pathway (P-S6K) in tubular cells (FIG. 28); format: cell-based; conditions: tubular cells with inhibitor
Excerpt: The downstream pathways stimulated by adenine are PI3Kinase, AKT and mTOR (FIG. 28). […] Once mTOR is inhibited the downstream effect of adenine to stimulate matrix accumulation was reduced (FIG. 19).

Row | Compound | adenine-induced fibronectin production [1] | adenine-induced stimulation of mTOR pathway (P-S6K) [2]
1 | CO[C@H]1C[C@@H]2CC[C@@H](C)[C@@](O)(O2)C(=O)C(=O)N2CCCC[C@H]2C(=O)O[C@H]([C@H](C)C[C@@H]2CC[C@@H](O)[C@H](OC)C2)CC(=O)[C@H](C)/C=C(\C)[C@@H](O)[C@@H](OC)C(=O)[C@H](C)C[C@H](C)/C=C/C=C/C=C/1C [Rapamycin] | blocks adenine-induced fibronectin production | 
2 | O=c1cc(N2CCOCC2)oc2c(-c3ccccc3)cccc12 [LY294002, reference compound] |  | block Adenine-induced stimulation of mTOR pathway
